Laboratory results reported in PubChem BioAssay AID588499 (NMMLSC, 2011).
The whole screen tested about 360,000 compounds, of which about 610 (0.17%) were called active. Inconclusive results, whose numbers are uncertain, are shown with a selection of clear calls. Cut-off read from the data, not from the text of the source: active = inhibition above about 30%; inconclusive = no clear call, values can overlap the other calls; inactive = below that.

Each compound was assayed on Botulinum neurotoxin type A light chain protease (Clostridium botulinum A str. ATCC 3502) (assay: blockers of BoNT/A LC substrate cleavage – biochemical, flow cytometry, MLPCN library, primary screen (AID 588499; note: plate controls were buffer without enzyme for full effect and enzyme alone for no effect)). Details: multiplex microsphere protease substrate cleavage, at 10 µM, hits give high values.

Row | Compound | inhibition
1 | Cc1cc(Nc2ccc(F)cc2)nc(N)n1 | inactive: 0.1%
2 | NC(=O)c1ccccc1NS(=O)(=O)c1ccc(F)cc1 | inactive: 0.9%
3 | CCCCNC(=O)C1c2ccccc2OCC(=O)N1Cc1ccccn1 (stereo unspecified) | inactive: -0.1%
4 | COc1ccccc1N1CCN(C(=O)CCn2c(=O)[nH]c3ccccc3c2=O)CC1 | inconclusive: -1.3%
5 | CC(=O)NCCNc1nc2cc(-c3ccc(Cl)cc3C)sc2c(=O)n1C | inactive: 0%
6 | CCc1cc(C(=O)NCCN(C)C)cs1 | inconclusive: 38.7%
7 | COc1ccc(CNC(=O)/C=C/c2cc([N+](=O)[O-])ccc2OC(F)F)cc1 | inconclusive: -2.8%
8 | COc1cc(OC)cc(C(=O)NC(=S)NCc2ccco2)c1 | inconclusive: -4.5%
9 | COc1ccccc1NS(=O)(=O)c1ccccc1C#N | inconclusive: -3.4%
10 | CCN(CC)S(=O)(=O)c1ccc2nc(NC(=O)c3cccs3)sc2c1 | inactive: 0.1%
11 | COc1ccc(Cl)cc1-c1n[nH]c(=S)n1Cc1ccccc1 | inconclusive: -10.3%
12 | CC(C)(C)C(=O)OCc1nc(-c2ccc(C(F)(F)F)cc2)cs1 | inconclusive: -2.2%
13 | O=C(/C=C/Nc1ccc([N+](=O)[O-])cc1Br)c1cccc2ccccc12 | active: 37.9%
14 | COc1ccc(/C=C\C(=O)NCc2ccc3c(c2)cc(C)n3C)cc1OC | active: 61.8%
15 | O=C(OCc1ccccc1F)c1cc([N+](=O)[O-])ccc1N1CCOCC1 | inconclusive: -1.1%
16 | Nc1nc(SCC(=O)Nc2cc(-c3ccccc3)nn2-c2ccccc2)n[nH]1 | inconclusive: 5.8%
17 | O=c1c2ccccc2sn1-c1cc(S(=O)(=O)N2CCOCC2)ccc1N1CCCC1 | inconclusive: 3.8%
18 | CCOC(=O)c1ccc(CN2C(=O)c3ccccc3S2(=O)=O)cc1 | inconclusive: -0.3%
19 | COc1ccc(NC(=O)CN(C)C(=O)CSCC(=O)Nc2ccc(C)cc2)cc1 | inconclusive: 4.8%
20 | CCC(=O)Nc1ccc2c(c1)Cc1cc([N+](=O)[O-])ccc1-2 | inactive: 3%
21 | CN(C)c1cc(-c2ccc(Cl)cc2)oc(=O)c1Cl | inconclusive: -35.3%

Row | Compound | inhibition
22 | O=C(c1ccc(CS(=O)(=O)c2cccc(C(F)(F)F)c2)o1)N1CCN(c2ccccn2)CC1 | inconclusive: -2%
23 | C=CCN=C(NC#N)SCC(=O)c1cccc(OC)c1 | inconclusive: -7%
24 | O=C(COC(=O)CSc1ccccc1)NC1CCS(=O)(=O)C1 (stereo unspecified) | inactive: -0.5%
25 | Cc1cccc(NC(=O)COc2cccc3c2CCNC3=O)c1 | inactive: -0.5%
26 | CCCc1nnc(SCC(=O)Nc2ccc(OC)cc2)n1N | inconclusive: 9.8%
27 | COCC(C)NC(=O)c1ccc2nc(-c3ccccc3)c(-c3ccccc3)nc2c1 (stereo unspecified) | inactive: 4.9%
28 | S=C(Nc1ccc2nc(-c3ccccn3)c(-c3ccccn3)nc2c1)N1CCCCC1 | active: 33.1%
29 | O=C(c1ccc(Cl)cc1)N1CCC(c2nc(-c3cccs3)no2)CC1 | inactive: -5.1%
30 | Cc1ccnc(SC2CC(=O)N(c3ccc([N+](=O)[O-])cc3)C2=O)n1 (stereo unspecified) | inconclusive: -2.5%
31 | COC(=O)c1cc(-c2ccccc2)sc1NC(=O)CN1C(=O)c2ccccc2C1=O | inconclusive: -1.5%
32 | COc1ccc(CN2C(=O)NC3(CCCCC3)C2=O)cc1F | inconclusive: -0.1%
33 | CCN(C1CCCCC1)S(=O)(=O)c1cn(C)c(=O)n(C)c1=O | inactive: -0.2%
34 | CCOC(=O)Cc1cc(=O)n2[nH]c(C(C)(C)C)cc2n1 | inconclusive: 26.1%
35 | O=C(Nc1cccc(S(=O)(=O)N2CCOCC2)c1)c1cc2c(s1)CCC2 | inconclusive: -3.6%
36 | CCOC(=O)c1c(C)c(C(=O)NCCOC)c(C)n1CC | inactive: 0.9%
37 | Cc1cc(C)n(-c2nnc(NC(C)(C)C)nn2)n1 | inactive: 1.1%
38 | CC1CCN(Cc2cc(=O)oc3ccc4ccccc4c23)CC1 | inconclusive: -22.8%
39 | O=C(CSc1nnc2ccc(-c3ccccn3)nn12)Nc1cccc(F)c1 | inactive: -0.6%
40 | NC(=O)c1ccccc1N=Cc1ccccn1 | inconclusive: -193%
41 | CCOC(=O)N1CCN(C/C(C)=C/c2ccccc2)CC1 | inconclusive: 7.4%
42 | COCCn1c(=O)[nH]c(=O)c2c(C(F)(F)F)cc(-c3cccs3)nc21 | inactive: 0%

Row | Compound | inhibition
43 | Cc1c(S(=O)(=O)N(C)C2CCCCC2)c(=O)n(C)c(=O)n1C | inconclusive: -3.7%
44 | CC1=NN(C(N)=S)C(C)(C)C1 | inconclusive: 1.3%
45 | CN1CCN(CC#CCC(O)(c2ccccc2)c2ccccc2)CC1 | inconclusive: 2.9%
46 | CCc1ccccc1NC(=O)c1cnccn1 | inactive: -1.8%
47 | CC(C)(C)[C@H]1COC(=O)[C@@H](Cc2ccc(F)cc2)CC/C=C/C[C@@H](CC(=O)N[C@@H](CO)Cc2ccccc2)C(=O)N1 | inactive: 0.2%
48 | Cc1ccc(NC(=O)C2CCCN(S(=O)(=O)c3c(C)noc3C)C2)c(Br)c1 (stereo unspecified) | inactive: -1.3%
49 | N#CC1CC(c2ccccc2)=NN1c1ccccc1[N+](=O)[O-] (stereo unspecified) | inactive: 0.8%
50 | CCC(CO)[n+]1c(C)cc(/C=C2\Sc3ccccc3N2Cc2ccccc2)cc1C (stereo unspecified) | active: 39.8%
51 | C=CCc1cccc2cc(C(=O)NCc3cccnc3)c(=O)oc12 | inactive: -0.1%
52 | CCOc1ccc(OCCOCCNCCOC)cc1 | inactive: 3.5%
53 | CCSc1ncnc2sc3c(c12)CCC3 | inactive: 1.1%
54 | C=CCn1c(=O)c2ccccc2n2c(SCC(=O)NC(C)C)nnc12 | inactive: 1%
55 | CNc1nc2cccnc2s1 | inconclusive: -11.3%
56 | Cc1ccc(N2CC(NS(=O)(=O)c3cc(F)ccc3F)CC2=O)cc1C (stereo unspecified) | inconclusive: 4.2%
57 | Cc1ccccc1/C=C1\SC(=S)N(/N=C/c2cc([N+](=O)[O-])ccc2O)C1=O | inactive: 0%
58 | O=C(NCc1ccco1)c1cc(-c2ccco2)on1 | inconclusive: -0.6%
59 | O=C1NC(c2cccs2)C(C(=O)c2ccccc2)C(O)(C(F)(F)F)N1 (stereo unspecified) | inconclusive: 2.3%
60 | COc1ccc2oc(C(=O)N3CCCc4ccccc43)c(C)c2c1 | inactive: 0.9%
61 | CC(C)C(=O)c1cc2c(cc1NC(=O)c1ccccc1)OCCO2 | inconclusive: -1.1%

Entries listed so far that have bromine (two):
Row | Compound | inhibition
13 | O=C(/C=C/Nc1ccc([N+](=O)[O-])cc1Br)c1cccc2ccccc12 | active: 37.9%
48 | Cc1ccc(NC(=O)C2CCCN(S(=O)(=O)c3c(C)noc3C)C2)c(Br)c1 (stereo unspecified) | inactive: -1.3%
